The assay deals with ML-2. Also noted: species or system AML cell lines (8); Primary HTS, single concentration about 10 uM, Cell Titer Glo viability; log10 luminescence, per cent inhibition relative to cycloheximide control. Particulars: 72 h, relative to cycloheximide control, log10 luminescence; inhibitor.

Only a part is listed here, and it is no random draw.

As for `Cc1cc(NS(=O)(=O)c2ccc(N)cc2)no1` [SJ000285603-4, SULFAMETHOXAZOLE], the ML-2 %inh came to 0.3783%. In the case of `Cc1cnc(C(=O)NCCc2ccc(S(=O)(=O)NC(=O)NC3CCCCC3)cc2)cn1` [SJ000287188-5, GLIPIZIDE] it was -0.9872%.

The values above are taken from publication PMC6522510 (Nature Communications, 2019).
